Calls as published in the ROBIN set (doi:10.1002/anie.202211358).

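Each compound is printed as two spots on a slide made to bind it covalently, so it has no test concentration; the read-out is fluorescence of the bound, labelled oligonucleotide. For the PreQ1, TPP and SAM-II riboswitches the laboratory earlier reported (doi:10.1038/s41467-019-09493-3) 1 µM RNA, 2 h, and a rule that included a mean Z-score above 3 (spot signal-to-noise against the whole library), a score well above that on a control array, and duplicate spots agreeing (coefficient of variation under 100). The data file gives only the calls; its cut-offs may differ, and compounds hitting several targets are kept. A missing hit is not proof of no binding, and a hit is not a measured affinity.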 A compound is marked Y if it was called a hit and N if it was screened but was not. This is an unselected part of the compounds tested. A dash means that no call is listed here.

Targets (5′ to 3′):
T1: SAM-II riboswitch RNA pseudoknot, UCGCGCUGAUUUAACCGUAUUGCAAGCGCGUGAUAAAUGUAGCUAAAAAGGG. About 200 hits among about 21,000 compounds.
T2: TPP riboswitch RNA three-way junction, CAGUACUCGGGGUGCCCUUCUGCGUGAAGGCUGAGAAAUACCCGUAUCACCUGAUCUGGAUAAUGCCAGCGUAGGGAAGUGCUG. About 160 hits among about 24,000 compounds.
T3: PreQ1 riboswitch RNA pseudoknot, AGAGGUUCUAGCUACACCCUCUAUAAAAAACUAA. From B. subtilis. About 170 hits among about 24,000 compounds.

compound | T1 | T2 | T3
CCCc1nc(Nc2nc3ccccc3o2)nc(C)c1C(=O)OCC | N | N | N
OC[C@H]1CN(c2nc3ccccc3o2)C[C@H]1CN1CCCCC1 | N | N | N
O=C1c2ccccc2C(=O)c2c(NCC3CCCO3)cccc21 (configuration not stated) | N | N | N
CC(C)c1ccc(-c2c(NCc3ccc(F)cc3)c(=O)c2=O)cc1 | - | N | N
Cc1cccc(OCC(O)Cn2cnc3cc(C)c(C)cc32)c1 (configuration not stated) | N | N | N
CCCCc1nc(-c2cc(-c3c(C)n[nH]c3C)nc(N)c2C#N)c[nH]1 | N | N | N
CCN1CCc2nc3sc(C(=O)c4ccccc4)c(N)c3cc2C1 | N | N | N
Cc1ccc(NC(=O)Cn2c(-c3nonc3N)nc3ccccc32)cc1Cl | - | N | N
COc1ccccc1-n1nc(C)c(-c2ccccc2)c1N | N | N | N
COC(=O)CCCCCNc1cc(C)nc2nc(-c3cccc(C)c3)nn12 | - | N | N
O=C(CCc1cc2n(n1)CCN(C(=O)C1CNCCO1)C2)N1CCCC1 (configuration not stated) | Y | N | N
Cc1[nH]c(-c2cc(-c3cccs3)c(C#N)c(N)n2)c(C)c1C(=O)O | N | N | N
Cc1ccc(NC(=O)CN[C@H](C(N)=O)C(C)C)cc1F | N | N | N
O=S1(=O)C[C@@H]2NCCN(c3ccnc(NCc4cnn5cccnc45)n3)[C@@H]2C1 | N | N | N
O=S(=O)(c1ccc(Cl)cc1)c1nc(-c2ccc(F)cc2)oc1NC1CC1 | - | N | N
CC(=O)c1c(C)nn(C(C)CC(=O)N2C[C@H]3C[C@H](O)[C@@H](O)C[C@H]3C2)c1C (some centres not stated) | N | N | N
C=CCNc1ccccc1C(=O)N1C[C@@H]2C[C@@H](C1)c1cccc(=O)n1C2 | N | N | N
Nc1ccccc1NC(=O)c1ccc(CNc2nccc(-c3cccnc3)n2)cc1 | N | N | N
COc1coc(CN2CC[C@H](N3CCOCC3)[C@H](CCCO)C2)cc1=O | N | N | N
O=C1c2[nH]nc(-c3ccccc3O)c2C(c2cccc(O)c2)N1CCO (configuration not stated) | - | N | N
Oc1ccc(Cl)nn1 | N | N | N
CC(C)NC(=O)[C@@H]1C[C@@H](N)CN1C(=O)CCc1ccsc1 | N | N | N
O=C(O)C=Cc1ccc(O)c(O)c1 | N | N | N
Cc1cc2c(cc1Br)NC(=O)C21C(C#N)=C(N)Oc2[nH]nc(C)c21 (configuration not stated) | N | N | N
N#Cc1c(N)nc2c(c1-c1cccs1)CCCC2 | N | N | N
CCC(C)Oc1nc2c(c(=O)n(C)c(=O)n2C)n1C (configuration not stated) | N | N | N
O=C(c1ccccc1-c1ncc[nH]1)N1CC[C@@H](N2CCCCCC2)[C@H](O)C1 | N | N | N
O=C(CCCO)NCCc1nc2ccccc2n1Cc1ccccc1F | - | N | N
NC1CN(C(=O)c2cn(Cc3ccc(Cl)cc3)nn2)C1 | N | N | N
O=C(O)c1ccc(COc2ccc(Cl)cc2CO)cc1 | N | N | N
COC(=O)C1=C(N)Oc2cc(C)oc(=O)c2C12C(=O)N(C)c1ccccc12 (configuration not stated) | N | N | N
Nc1nc(N2CCCC(CO)(CCc3ccccc3)C2)c2cn[nH]c2n1 (configuration not stated) | N | N | N
CCCCN(Cc1ccco1)Cc1cc(C#CCO)cs1 | N | N | N
O=C(Nc1ccnn1CC1CC1)N[C@H](CO)c1ccccc1 | N | N | N
Cc1cccc(NC(=O)N2CCN(C(=O)c3nonc3N)CC2)c1 | - | N | N
COc1cc(NC(=O)N2CCOCC(CO)C2)cc(-n2nnnc2C)c1 (configuration not stated) | N | N | N
c1cn(CC2CCCO2)c(-c2cc3n(n2)CCCNC3)n1 (configuration not stated) | N | N | N
CCCNc1cc(C)nc2nc(Cc3ccccc3)nn12 | - | N | N
COc1cc(N2CCCn3nc(CNC(=O)C4CCC4)cc3C2)nc(N)n1 | N | N | N
CC(C)(CO)N(Cc1ccco1)C(=O)C1CCCN1C(=O)C1CCCCC1 (configuration not stated) | N | N | N
CCOC(=O)N1CCC(NCc2nn(C)c3ccc(C)cc23)CC1 | N | N | N
Cc1cc2c(cc1C)NC1=C(O)C(c3cccc(O)c3)OC1=N2 (configuration not stated) | N | N | N
COc1ccc(Br)cc1CNc1cc(C)ccc1C | N | N | N
CCc1ccc(S(=O)(=O)N2CCN(c3cc(C)nc(NC4CCCCC4)n3)CC2)cc1 | - | N | N
CCCCCCCCOc1ccccc1C(=O)Nc1ccc(C(=O)OCC[N+](C)(CC)CC)cc1 | N | N | N
CNc1nc(CN2CCN(C(=O)c3ccoc3)CC(O)C2)cs1 (configuration not stated) | N | N | N
CCNc1nc(OC)nc(Oc2ccc(=O)n(C)n2)n1 | N | N | N
C[C@H]1[C@@H](OC(=O)CCC(=O)O)O[C@@H]2O[C@@]3(C)CC[C@@H]4[C@H](C)CC[C@@H]1[C@@]24OO3 | N | N | N
NNC(=O)c1nnn(-c2nonc2N)c1-c1ccccc1 | N | N | N
COc1cccc(CC(=O)N2C[C@H](CO)C[C@H](CN3CCCC3)C2)c1OC | N | N | N
COc1ccc(CCNCc2ccccn2)cc1OC | N | N | N

The last 3 entries again:

compound	T1	T2	T3
NNC(=O)c1nnn(-c2nonc2N)c1-c1ccccc1	N	N	N
COc1cccc(CC(=O)N2C[C@H](CO)C[C@H](CN3CCCC3)C2)c1OC	N	N	N
COc1ccc(CCNCc2ccccn2)cc1OC	N	N	N